Data as given in PubChem BioAssay AID504786 (Drosophila RNAi Screening Center, 2011).
In all, the deposit lists about 21,000 reagents; below is an unselected part of those with a known target gene and a result. 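Primary screen; positive scores mean lost reporter signal, so the sign may be inverted from the usual convention.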 The numbers tell different reagents against one gene apart.

Purpose: 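Knock-downs reducing HIF reporter induction by the iron chelator DFO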 (primary screen)
Cell system: Drosophila S2 cells with a stable HIF luciferase reporter
Knock-down reagent: long dsRNA against Drosophila genes, about 0.2 µg dsRNA per well of a 384-well plate
Time to read-out: three days of knock-down, then 20 h of DFO before reading
Treatment: desferrioxamine (DFO) at 100 µM, an iron chelator that mimics hypoxia, for 20 h
Measurement: 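HIF reporter luminescence in cells given 100 µM DFO for 20 h, using the mouse ldh-a hypoxia-response element, scored as per-plate z-scores; higher means greater loss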
Scale: z-score: higher = stronger loss of HIF reporter signal

With knock-down of SmB, the screen gave z-score, replicate 1 = 5.9; z-score, replicate 2 = 5.3.
After knock-down of Lsd-2, the record shows z-score, replicate 1 = -0.3; z-score, replicate 2 = -0.8.
With knock-down of su(sable), the record shows z-score, replicate 1 = 0; z-score, replicate 2 = 0.2.
With knock-down of Vml #1, the record shows z-score, replicate 1 = 0.2; z-score, replicate 2 = -0.3.
Vml #2 gave z-score, replicate 1 = -0.1; z-score, replicate 2 = 0.
Knock-down of CG12716 gave: z-score, replicate 1 = 0; z-score, replicate 2 = 0.3.
CG16704 showed z-score, replicate 1 = -0.3; z-score, replicate 2 = -0.6.
Against CG6696, the entry reads z-score, replicate 1 = -0.7; z-score, replicate 2 = 0.
With knock-down of TwdlB the results were z-score, replicate 1 = -0.1; z-score, replicate 2 = 0.2.
Silencing of CG16964 gave: z-score, replicate 1 = -0.2; z-score, replicate 2 = -0.8.
With knock-down of CG7382, the record shows z-score, replicate 1 = -0.2; z-score, replicate 2 = -0.2.
CG14237 gave z-score, replicate 1 = 0.3; z-score, replicate 2 = 1.2.
Against DNAlig1 the deposit lists z-score, replicate 1 = -0.3; z-score, replicate 2 = 0.
CG2794 scored z-score, replicate 1 = -0.2; z-score, replicate 2 = -0.2.
After knock-down of Ilp4, the screen gave z-score, replicate 1 = -0.3; z-score, replicate 2 = -0.4.
For CG3907, the entry reads z-score, replicate 1 = -0.1; z-score, replicate 2 = -0.3.
After knock-down of Act42A, the record shows z-score, replicate 1 = 0.4; z-score, replicate 2 = 0.7.
CG6893 scored z-score, replicate 1 = -0.2; z-score, replicate 2 = 0.3.
CG6026 scored z-score, replicate 1 = 1.2; z-score, replicate 2 = 0.
With knock-down of udd, the screen gave z-score, replicate 1 = -0.2; z-score, replicate 2 = -0.2.
Silencing of CG1620 resulted in: z-score, replicate 1 = -0.2; z-score, replicate 2 = -0.2.
With knock-down of Mtch, the screen gave z-score, replicate 1 = -0.2; z-score, replicate 2 = -0.2.
Knock-down of dcma #1 came out at: z-score, replicate 1 = 0; z-score, replicate 2 = -0.4.
Knock-down of dcma #2 gave: z-score, replicate 1 = -0.3; z-score, replicate 2 = -0.7.
CG11170 scored z-score, replicate 1 = -0.3; z-score, replicate 2 = -0.4.
Against CG3419 (retired record) #1, the values are z-score, replicate 1 = 0.1; z-score, replicate 2 = -0.3.
After knock-down of CG3419 (retired record) #2, the record shows z-score, replicate 1 = 0; z-score, replicate 2 = -0.3.
PolD1 showed z-score, replicate 1 = -0.1; z-score, replicate 2 = 0.5.
Spn38F showed z-score, replicate 1 = -0.3; z-score, replicate 2 = -0.5.
Knock-down of mab-21 came out at: z-score, replicate 1 = -0.2; z-score, replicate 2 = -0.6.
Depletion of CG13138 resulted in: z-score, replicate 1 = 0; z-score, replicate 2 = 0.1.
Against CG31267 the deposit lists z-score, replicate 1 = -0.1; z-score, replicate 2 = 0.1.
Knock-down of Nsun2 resulted in: z-score, replicate 1 = -0.1; z-score, replicate 2 = 0.4.
For phr, the entry reads z-score, replicate 1 = 0; z-score, replicate 2 = 0.2.
Knock-down of CG17207 came out at: z-score, replicate 1 = -0.3; z-score, replicate 2 = -0.4.
Against br #1, the values are z-score, replicate 1 = -0.6; z-score, replicate 2 = -0.6.
With knock-down of br #2, the screen gave z-score, replicate 1 = -0.1; z-score, replicate 2 = -0.7.
Knock-down of br #3 came out at: z-score, replicate 1 = -0.4; z-score, replicate 2 = -0.6.
br #4 scored z-score, replicate 1 = -0.3; z-score, replicate 2 = -0.8.
Silencing of CG15127 #1 resulted in: z-score, replicate 1 = -1.2; z-score, replicate 2 = -0.3.
With knock-down of CG15127 #2, the record shows z-score, replicate 1 = -0.3; z-score, replicate 2 = -0.4.

A stretch of the results above:
CG2794 — z-score, replicate 1 = -0.2; z-score, replicate 2 = -0.2
Ilp4 — z-score, replicate 1 = -0.3; z-score, replicate 2 = -0.4
CG3907 — z-score, replicate 1 = -0.1; z-score, replicate 2 = -0.3
Act42A — z-score, replicate 1 = 0.4; z-score, replicate 2 = 0.7
CG6893 — z-score, replicate 1 = -0.2; z-score, replicate 2 = 0.3
